Measured values reported in doi:10.1101/456418.

T1: KPAP1 poly(A) polymerase, TAP-tagged (Trypanosoma brucei) (UniProt B3FB38)
T1 sequence: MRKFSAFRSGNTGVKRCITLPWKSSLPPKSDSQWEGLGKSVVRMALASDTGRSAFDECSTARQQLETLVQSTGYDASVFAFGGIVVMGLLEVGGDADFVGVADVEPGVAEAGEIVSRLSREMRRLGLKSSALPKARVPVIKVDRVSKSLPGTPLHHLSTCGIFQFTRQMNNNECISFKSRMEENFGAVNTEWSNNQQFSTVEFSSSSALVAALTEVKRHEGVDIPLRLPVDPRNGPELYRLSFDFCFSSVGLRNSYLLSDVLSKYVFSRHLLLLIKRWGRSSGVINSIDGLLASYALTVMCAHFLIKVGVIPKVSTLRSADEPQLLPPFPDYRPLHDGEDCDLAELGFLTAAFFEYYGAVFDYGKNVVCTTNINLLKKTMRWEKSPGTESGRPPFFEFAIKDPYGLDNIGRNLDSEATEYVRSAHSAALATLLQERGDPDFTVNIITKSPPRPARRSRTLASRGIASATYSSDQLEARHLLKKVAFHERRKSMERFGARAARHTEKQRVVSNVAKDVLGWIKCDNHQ

T2: KPAP1 fusion with BirA* biotin ligase (Trypanosoma brucei) (UniProt B3FB38)
T2 sequence: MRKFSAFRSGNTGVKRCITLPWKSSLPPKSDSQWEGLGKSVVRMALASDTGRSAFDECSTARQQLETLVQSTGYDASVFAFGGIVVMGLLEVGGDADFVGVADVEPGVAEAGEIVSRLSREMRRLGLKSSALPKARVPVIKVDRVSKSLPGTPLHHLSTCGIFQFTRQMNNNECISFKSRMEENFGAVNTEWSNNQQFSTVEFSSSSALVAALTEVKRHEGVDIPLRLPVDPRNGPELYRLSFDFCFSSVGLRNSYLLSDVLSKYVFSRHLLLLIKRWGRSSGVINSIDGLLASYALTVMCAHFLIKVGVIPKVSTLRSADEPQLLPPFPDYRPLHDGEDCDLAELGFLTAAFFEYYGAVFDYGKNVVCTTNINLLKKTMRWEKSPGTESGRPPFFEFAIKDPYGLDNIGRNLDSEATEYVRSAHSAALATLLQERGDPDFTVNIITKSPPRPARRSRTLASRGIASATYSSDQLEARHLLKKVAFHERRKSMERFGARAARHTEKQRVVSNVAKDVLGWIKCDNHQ

T3: GRBC2 fusion with BirA* biotin ligase (Trypanosoma brucei) (UniProt B6SBL9)
T3 sequence: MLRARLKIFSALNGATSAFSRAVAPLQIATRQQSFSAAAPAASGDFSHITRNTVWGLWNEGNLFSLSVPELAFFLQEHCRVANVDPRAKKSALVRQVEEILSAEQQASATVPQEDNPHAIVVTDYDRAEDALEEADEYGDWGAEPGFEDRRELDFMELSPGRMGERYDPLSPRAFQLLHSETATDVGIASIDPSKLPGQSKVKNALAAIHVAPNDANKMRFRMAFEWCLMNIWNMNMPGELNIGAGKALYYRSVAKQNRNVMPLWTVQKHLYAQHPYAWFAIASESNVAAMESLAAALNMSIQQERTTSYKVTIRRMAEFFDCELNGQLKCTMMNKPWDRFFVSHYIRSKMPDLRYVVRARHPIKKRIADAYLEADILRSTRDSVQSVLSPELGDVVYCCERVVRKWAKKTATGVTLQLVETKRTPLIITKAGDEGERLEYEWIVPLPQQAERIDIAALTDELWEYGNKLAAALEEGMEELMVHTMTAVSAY

T4: MERS1 fusion with BirA* biotin ligase (Trypanosoma brucei) (UniProt B6SBM0)
T4 sequence: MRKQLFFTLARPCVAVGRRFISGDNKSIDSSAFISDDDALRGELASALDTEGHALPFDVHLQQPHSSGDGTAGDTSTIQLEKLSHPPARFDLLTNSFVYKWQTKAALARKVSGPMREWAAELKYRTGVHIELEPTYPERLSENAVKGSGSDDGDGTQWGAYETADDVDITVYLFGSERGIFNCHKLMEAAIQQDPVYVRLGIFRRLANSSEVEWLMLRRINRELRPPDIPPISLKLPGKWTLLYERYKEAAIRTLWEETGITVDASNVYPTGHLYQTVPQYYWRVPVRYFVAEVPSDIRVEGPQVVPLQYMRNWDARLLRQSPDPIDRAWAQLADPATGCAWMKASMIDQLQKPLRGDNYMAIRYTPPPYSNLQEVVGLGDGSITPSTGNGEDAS


Columns and labels:
[1] = molecular target: T1, KPAP1 poly(A) polymerase, TAP-tagged (Trypanosoma brucei); assay: affinity purification with mass spectrometry
[2] = molecular target: T2, KPAP1 fusion with BirA* biotin ligase (Trypanosoma brucei); assay: proximity labelling
[3] = molecular target: T3, GRBC2 fusion with BirA* biotin ligase (Trypanosoma brucei); assay: proximity labelling
[4] = molecular target: T4, MERS1 fusion with BirA* biotin ligase (Trypanosoma brucei); assay: proximity labelling
[5] = molecular target: Kinetoplast Polyadenylation Factor 4, C-terminally TAP-tagged (Trypanosoma brucei); assay: affinity purification with mass spectrometry

Molecule | binding [1] | binding [2] | further results
KPAF1 polyadenylation factor | binds |  | 
KPAF2 polyadenylation factor | binds | binds | 
subunit P3 of the polyadenylation mediator module (PAMC) |  | binds | 
Kinetoplast Polyadenylation Factor 3 | binds |  | 
subunit P4 of the polyadenylation mediator module (PAMC) |  | binds | 
MRP2 (MRP1/2 RNA chaperone) |  | binds | binding [3]: binds; binding [4]: binds
KPAP1 poly(A) polymerase (enzyme, UniProt B3FB38 1-527) MRKFSAFRSGNTGVKRCITLPWKSSLPPKSDSQWEGLGKSVVRMALASDTGRSAFDECSTARQQLETLVQSTGYDASVFAFGGIVVMGLLEVGGDADFVGVADVEPGVAEAGEIVSRLSREMRRLGLKSSALPKARVPVIKVDRVSKSLPGTPLHHLSTCGIFQFTRQMNNNECISFKSRMEENFGAVNTEWSNNQQFSTVEFSSSSALVAALTEVKRHEGVDIPLRLPVDPRNGPELYRLSFDFCFSSVGLRNSYLLSDVLSKYVFSRHLLLLIKRWGRSSGVINSIDGLLASYALTVMCAHFLIKVGVIPKVSTLRSADEPQLLPPFPDYRPLHDGEDCDLAELGFLTAAFFEYYGAVFDYGKNVVCTTNINLLKKTMRWEKSPGTESGRPPFFEFAIKDPYGLDNIGRNLDSEATEYVRSAHSAALATLLQERGDPDFTVNIITKSPPRPARRSRTLASRGIASATYSSDQLEARHLLKKVAFHERRKSMERFGARAARHTEKQRVVSNVAKDVLGWIKCDNHQ |  |  | binding [5]: binds

No constants are given. Whether binding was seen depends on the method and setting. Binding seen in cells or lysates may run through a third protein. These calls come from enrichment with a bait or labelling near it, and not all partners need be listed. For some of these results: Tags and fused reporters may be left off the sequences shown.
